Here are results for one molecule from PubChem BioAssay AID1332 (Southern Research Institute, 2008).

Most of the hits are listed elsewhere, so they are rarer here than in the full data. Calls of active or inactive are those of the source. No rule for the calls is given here. Bounds are passed on as bounds.

The test in a line: Confirmatory growth inhibition assay, mycobacterium tuberculosis h37rv, with cytotoxicity (AID 1332).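 As to IC50: bacteria incubated 7 days before adding Alamar blue readout reagent.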 The note with it: M. tuberculosis H37Rv growth inhibition; measured here: IC50 H37Rv replicates.
In general, IC50 refers to the point on the concentration scale where inhibition reaches its midpoint. A low value points to inhibition by little substance. Regarding `CN1[C@@H]2CC[C@H]1CC(OC(=O)C(O)c1ccccc1)C2` (some centres not stated), the half-maximal inhibitory concentration (IC50) is over 20 µg/mL and the outcome was inactive.
